How the values were obtained:
[1] = tested on: N. fowleri ATCC® 30,808™ trophozoites; experiment: In vitro activity against trophozoites, alamarBlue, 48 h; assay type: cell-based, Naegleria fowleri
[2] = tested on: N. fowleri (ATCC® 30,808™) trophozoites; assay type: cell-based, Naegleria fowleri
[3] = tested on: N. fowleri ATCC® 30,808™ cysts; experiment: microbe, parasite or virus in culture; assay type: cell-based; conditions: Naegleria fowleri, ATCC30, read-out: N. fowleri ATCC 30,808 IC50, cyst stage
[4] = tested on: N. fowleri ATCC® 30,215™ trophozoites; experiment: In vitro activity against trophozoites, alamarBlue, 48 h; assay type: cell-based; conditions: Naegleria fowleri, ATCC30, 48 h, read-out: N. fowleri ATCC 30,215 IC50

CN1CCC[C@@H]1CCO[C@](C)(c1ccccc1)c1ccc(Cl)cc1 [CLEMASTINE, clemastine]
S.I. ATCC 30,808 (selectivity index CC50/IC50) ([1]; CC50 J774A.1 / IC50 ATCC 30,808 trophozoites): 7.64
IC50 ([1]; Naegleria fowleri, ATCC30, 48 h, read-out: N. fowleri ATCC 30,808 IC50, trophozoite stage): 7.68 ± 0.32 µM
IC90 ([1]; Naegleria fowleri, ATCC30, read-out: N. fowleri ATCC 30,808 IC90): 18.6 ± 5.64 µM
Inhibition of ATP synthesis in comparison to the negative control [2]: over 96%
IC50 [3]: 8.2 ± 3.37 µM
IC50 [4]: 5.69 ± 1.16 µM

— article PMC11091526 (International Journal for Parasitology: Drugs and Drug …, 2024)
